For data set [1], the target named is GAPDH (Homo sapiens) (UniProt P04406). Description: fluorescence polarization, competition. The following applies: 300 µM heptelidic acid; 10 mM Tris-HCl pH 8.0, 50 mM KCl, 2 mM DTT, 0.5 mM EDTA, 0.1 mg/ml BSA, 0.1 mg/ml heparin, room temperature; FP 30 min with 2 nM RNA; recombinant protein; protein details: N-terminal His. (In fluorescence polarisation assays a small probe gives low polarisation when free and higher when bound to something large.)

Amino acid sequences for entries named in this document (tags omitted). A change or cut given only in a name is not applied to a line headed by its entry.
UniProt P04406: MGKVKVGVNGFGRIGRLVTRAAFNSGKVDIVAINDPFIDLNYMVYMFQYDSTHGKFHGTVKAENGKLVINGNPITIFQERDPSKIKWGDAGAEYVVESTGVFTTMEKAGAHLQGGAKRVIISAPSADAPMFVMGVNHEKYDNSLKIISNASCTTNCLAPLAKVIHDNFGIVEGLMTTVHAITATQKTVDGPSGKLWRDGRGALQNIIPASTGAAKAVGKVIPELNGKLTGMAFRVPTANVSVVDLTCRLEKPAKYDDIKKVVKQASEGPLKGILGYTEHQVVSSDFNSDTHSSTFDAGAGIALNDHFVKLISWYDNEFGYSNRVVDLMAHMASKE

The target is the same in data set [2]. Description: mass photometry. The following applies: minor mass shift, no heparin or BSA in buffer; 10 mM Tris-HCl pH 8.0, 50 mM KCl, 2 mM DTT, 0.5 mM EDTA, 0.1 mg/ml BSA, 0.1 mg/ml heparin, room temperature; recombinant protein; protein details: N-terminal His.

The exact form of at least one protein or probe is not confirmed. For some assays here: The comparison behind a weaker result is the experiment's own reference, which may not be listed here.

“GUGAUUAUUUAUUAUUUAUUUAUUAUUUAUUUAUUUAG [TNFα-ARE38]”: in the data set with GAPDH (Homo sapiens) [1], the binding signal (% maximum reduction of binding) was 30.
Consider UGGCCAAUGCCCUGGCUCACAAAUACCACUG [Rβ31], for which, in the data set with GAPDH (Homo sapiens) [2], the binding result is recorded as “binds more weakly”.
